These results are taken from patent US9815815B2, “Non-selective kinase inhibitors” (GILEAD SCIENCES, INC., priority 2013, dated 2017).

Assay [1] concerns PDGFBB stimulated AKT phosphorylation. Description: In cell Western (ICW), PDGFBB stimulated AKT phosphorylation in human fetal lung fibroblasts. It counts as cell-based. To be noted: Fibroblast, HLFs, read-out: IC50, PDGFBB stimulated AKT phosphorylation at Ser473. The procedure:
In cell Western (ICW). […] HLFs were maintained in subculture at no more than 6 passages in DMEM with 5% FBS and 4 mM Glutamax at 37° C., 5% CO2. HLFs were plated and grown to 70-80% confluence in 96 well plates then serum-starved for 48 hours. […] Antibodies were detected using IRDye 680LT goat anti-mouse IgG and IRDye 800W goat a-rabbit IgG conjugated antibodies. After washing, the signal was quantified using an Odyssey Infrared Imaging System (LI-COR). Phosphoprotein signal (800 nm) was normalized to total protein signal (700 nm) acquired from each well and experimental duplicates on same plate were averaged and reported.

Assay [2] concerns PDGFAA stimulated AKT phosphorylation. Description: In cell Western (ICW), PDGFAA stimulated AKT phosphorylation in human fetal lung fibroblasts. To be noted: for IC50: Homo sapiens, Fibroblast. The class given is cell-based. The method, then:
In cell Western (ICW). […] HLFs were maintained in subculture at no more than 6 passages in DMEM with 5% FBS and 4 mM Glutamax at 37° C., 5% CO2. HLFs were plated and grown to 70-80% confluence in 96 well plates then serum-starved for 48 hours. […] After washing, the signal was quantified using an Odyssey Infrared Imaging System (LI-COR). Phosphoprotein signal (800 nm) was normalized to total protein signal (700 nm) acquired from each well and experimental duplicates on same plate were averaged and reported.

Molecules are shown by their SMILES. Where two headings read alike, the source gives them in different places.

What is called IC50 is the concentration needed to halve the response being measured.

Turning to `Cc1ccc(NC(=O)c2ccc(CN3CCN(C)CC3)cc2)cc1Nc1nccc(-c2cccnc2)n1` [Imatinib], the half-inhibitory concentration (IC50) in assay [1] was 1.8 µM; in assay [2] (read-out: IC50, PDGFAA stimulation of pAKT(S473)), 0.3 to 0.6 µM; in assay [2] (read-out: IC50, PDGFAA stimulation of pAKT(T308)) it was 0.3 to 0.6 µM. In assay [2] (comparison in words), the “IC50 for PDGFAA stimulated phosphorylation of AKT, PK10453 vs imatinib” value is recorded as “not significantly different”.
